Assay results taken from PubChem BioAssay AID493014 (National Center for Advancing Translational Sciences (NCATS), 2011).
The campaign covered roughly 340,000 compounds. About 170 (0.05%) were called active. The inconclusive results got no clear call from the source; some entries with a clear call stand among them for comparison. The call rests on the fitted dose curve; in most records, active means well fitted inhibition curve with a large enough effect in the signal ratio, with a control signal flat (not every such curve was filed as active); inconclusive means small, poorly fitted or top-dose-only effect, or effect the other way, or a change in a side signal; inactive means flat fitted curve, though single readings scatter; the % refers to the signal ratio. Where the call is inconclusive, the potency comes from a doubtful curve fit.

Test: qHTS Assay to Find Inhibitors of Chronic Active B-Cell Receptor Signaling;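 on activity change, negative = inhibition: plate controls were basal doxycycline-induced cells for no effect and cells given 10 µM MG132 for full effect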
Details: ABC-DLBCL IkBa-CBG/CBR reporter, luminescence ratio (green luciferase fused to IkBa over red control in TMD8 lymphoma cells), 4 h; activity change, negative = inhibition: at 46.1 µM (top of the series) unless noted
How it was run: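 Compounds up to 46 uM were incubated four hours with TMD8 cells whose green CBG68 luciferase is fused to IkappaBalpha; red CBR luminescence normalised the signal, and concentration-effect curves were fitted to fusion, red and ratio data.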
Potency means the concentration at half of the fitted maximal effect.

SMILES | activity change, negative = inhibition | Potency
C=CCNC(=S)N/N=C/c1ccc(OCc2ccccc2Cl)cc1 | inactive: -14.8% | –
CCOc1cc2[nH]c(=S)n(CCCN3CCOCC3)c(=O)c2cc1OCC | inconclusive: 12% | –
Nc1ccc(N2CCCCC2)c(S(=O)(=O)Nc2ccccc2Cl)c1 | inactive: 9.64% | –
COc1ccccc1NC(=O)CCN1C(=O)/C(=C\c2cc(OC)c(OC)c(OC)c2)SC1=S | inconclusive: 3.65% | –
O=C(CSc1nnc(-c2cccnc2)n1CCN1CCCCC1)Nc1cccc(Cl)c1 | inactive: 2.56% | –
CCC(C)Oc1cccc(OCCCCN2C(=O)NC(C)(C)C2=O)c1 (configuration not stated) | inconclusive: 1.03% | –
CCOc1ccc(C(=O)/C=C/c2ccc(SC)cc2)cc1 | – | inconclusive: 31.6 µM [falling, single point]
C/C(=N\NC(=O)c1nnn(-c2nonc2N)c1-c1ccccc1)c1ccco1 | inactive: 13.9% | –
COc1ccccc1/C=C/C(=O)OCc1nc2ccccc2c(=O)[nH]1 | – | inconclusive: 15.8 µM [falling, partial curve]
CCCc1cc(-c2[nH]ncc2-c2ccc3c(c2)OCCCO3)c(O)cc1O | – | inconclusive: 22.4 µM [falling, single point]
O=C(NCc1ccco1)C(c1ccco1)N(CCc1ccccc1)C(=O)Cn1nnc2ccccc21 (configuration not stated) | inconclusive: -2.03% | –
C/C(=N\NC(=O)c1ccc(NS(=O)(=O)c2cccs2)cc1)c1ccncc1 | – | inconclusive: 22.4 µM [falling, partial curve]
CC(C)=CCCC1(C)C=Cc2c(ccc3c2[nH]c2cc(O)c(C)cc23)O1 (configuration not stated) | – | inconclusive: 17.8 µM [rising, single point]
O=C(CN1CCN(C(=O)c2ccc(-c3nc4ccccc4s3)o2)CC1)Nc1ccccc1Cl | inactive: -1.1% | –
CN1CCCN(C(=O)c2cc(-c3ccc(Cl)c(Cl)c3Cl)nc3ccccc23)CC1 | – | inconclusive: 10 µM [falling, partial curve]
COC(=O)c1ccccc1NC(=O)c1ccc2c(c1)OCCCO2 | – | inconclusive: 25.1 µM [falling, single point]
CC(=O)c1cc(-c2ccccc2)n(CCC(=O)NCc2cccs2)c1C | inconclusive: -1.95% | –
CCCCSCCCNC(=O)c1ccc(CS(=O)(=O)c2ccccc2OC)o1 | inconclusive: -4.05% | –
CC(C)c1nnc(NC(=O)CCS(=O)(=O)c2nc(-c3cccs3)cc(C(F)(F)F)n2)s1 | inconclusive: -6.02% | –
CC1=C(C(=O)N2CCOCC2)C(c2ccsc2)C2=C(CCCC2=O)N1 (configuration not stated) | inconclusive: 12.4% | –
COc1ccc(/C=C2\CC/C(=C\c3ccc(OC)c(OC)c3)C2=O)cc1OC | – | inconclusive: 13 µM [falling, partial curve]
COc1ccc(/C=C/C(=O)N(C)C2CCS(=O)(=O)C2)cc1 (configuration not stated) | inactive: -5.04% | –
Cn1c(=O)c2c(ncn2CC(=O)OCC(=O)Nc2ccc(Cl)cc2)n(C)c1=O | inconclusive: 7.71% | –
COc1ccccc1NC(=O)Cc1nn(C)c(=O)c2ccccc12 | – | inconclusive: 20.6 µM [falling, single point]
Cn1c2ccccc2c2c(C(=O)N3CCN(c4ccc(F)cc4)CC3)cn(C3CCCC3)c(=O)c21 | inconclusive: -3.52% | –
COCCOC(=O)/C=C1/NC(=O)CS1 | inconclusive: -2.58% | –

SMILES | activity change, negative = inhibition | Potency
COc1ccc(C2/C=C\CN(C(=O)C3CCCC3)[C@H](Cc3ccccc3)C(=O)N2Cc2ccc(F)cc2)cc1 (some centres not stated) | inconclusive: -3.63% | –
CC(C)CN(C(=O)CN1CCc2ccccc21)c1c(N)n(CC(C)C)c(=O)[nH]c1=O | inactive: -2.63% | –
C=C(C)COc1ccc(-c2ncnc(C(F)(F)F)c2-c2ccc(OC)cc2)c(O)c1 | inactive: 0.0277% | –
Nc1nc(-c2ccc(-n3nncc3-c3ccco3)cc2)cs1 | – | inconclusive: 15.8 µM [falling, partial curve]
CCC(C)c1ccccc1N1CC(C(=O)N(C)CC(=O)Nc2cccc(F)c2)CC1=O (configuration not stated) | inactive: -2.7% | –
CCOC(=O)Cc1csc(NC(=O)Cn2c(=O)oc3ccccc32)n1 | inactive: 1.13% | –
Cc1cccc(NC(=O)c2cnn(-c3ccc(F)cc3)c2C2CCNCC2)c1C | – | inconclusive: 11.2 µM [falling, partial curve]
CCCCCCCCOC(=O)c1c(CSC(=N)N)n(C)c2cc(Br)c(OC(C)=O)cc12 | inconclusive: -4.5% | –
O=C(O)CCCCCCCCc1cn(CC2CCCCC2)nn1 | inconclusive: 8.82% | –
Cc1ccccc1OCC(=O)Nc1nc2ccccc2[nH]1 | – | inconclusive: 22.4 µM [falling, single point]
Nc1nc(Nc2ccc(Cl)cc2)nc(NCc2ccco2)c1[N+](=O)[O-] | inconclusive: 17.9% | –
Cc1ccc(-c2nnc(SCC(=O)N/N=C/c3ccccc3C(=O)O)n2-c2ccccc2)cc1 | inactive: 5.73% | –
COc1ccc(OCC(=O)Nc2ccccc2OC(F)F)cc1 | inconclusive: -17.6% | –
Cn1c(=O)[nH]c(=O)c2c1nc(SCC(=O)O)n2Cc1ccccc1 | inconclusive: -1.18% | –
O=C1CCN(CCc2ccccc2)CCN1[C@H](CSc1ccccc1)Cc1ccccc1 | inconclusive: 8.44% | –
COC(=O)c1cccc2c1-c1ccccc1/C2=N\NC(N)=O | inconclusive: 9.38% | –
CCOc1ccccc1N(C(=O)Nc1ccc(Cl)cc1)C1=NCCS1 | inconclusive: 23.6% | –
CC1(C(=O)OCC(=O)Nc2ccc(Cl)cn2)CC1(Cl)Cl (configuration not stated) | inconclusive: 0.678% | –
Cc1cc(C)cc(N(CC(=O)NCCSc2ccccn2)S(=O)(=O)c2ccccc2)c1 | – | inconclusive: 14.1 µM [rising, single point]
CC(=O)c1c(C)[nH]c(C(=O)Nc2nc(-c3ccc(-c4ccccc4)cc3)cs2)c1C | – | inconclusive: 29.1 µM [rising, partial curve, poor fit]
CCNC(=S)Nc1cc(OCC)c(NC(=O)c2ccco2)cc1OCC | inactive: 5.38% | –
Cc1cc(=O)oc2c(C)c(OCC(=O)N3CCN(c4ccccc4)CC3)ccc12 | inactive: -9.4% | –
O=S(=O)(c1ccc(N2CCC(c3ccc(Cl)cc3)=N2)cc1)N(CCO)CCO | – | inconclusive: 6.51 µM [rising, partial curve, poor fit]
CC1CCN(c2ncnc3c2cnn3-c2ccccc2)CC1 | – | inconclusive: 0.92 µM [rising, full curve]
O=[N+]([O-])c1cc(/C=N/N2CCCCC2)ccc1Cl | inconclusive: 13.9% | –
CCn1c(COc2ccc(Cl)cc2)nnc1SC1CCc2ccccc2C1=O (configuration not stated) | inactive: 0.212% | –

SMILES | activity change, negative = inhibition | Potency
O=C(N/N=C/C=C/c1ccc(Br)cc1)C(O)c1ccccc1 (configuration not stated) | inconclusive: 3.21% | –
O=C(NCCCN1CCOCC1)c1ccc2c(=O)n(Cc3ccc(Cl)cc3)c(=S)[nH]c2c1 | inactive: 8.08% | –
CCN(CC)S(=O)(=O)c1ccc(C(=O)/C=C/c2ccc(-c3ccc([N+](=O)[O-])cc3)o2)cc1 | inactive: -13.3% | –
Cc1ccc(C)c(NS(=O)(=O)c2cc(C(=O)Nc3ccccc3-c3ccccc3)ccc2Cl)c1 | inconclusive: 10.9% | –
CCn1nc(C)cc1C(=O)Sc1ccc(Cl)cc1Cl | – | inconclusive: 35.5 µM [falling, single point]
CCc1ccc(NC(=O)CSC2=Nc3ccccc3C3=NC(CCC(=O)NCCc4ccccc4)C(=O)N23)cc1 (configuration not stated) | inactive: -17% | –
CCCc1nn2c(N)c(/C=C3\C=Nc4ccccc43)c(=O)nc2s1 | inactive | –
COc1ccc(C(CC(=O)c2ccccc2)S(=O)(=O)c2ccc(C)cc2)cc1 (configuration not stated) | inconclusive: 4.65% | –
Cc1ccccc1NC(=O)CSc1cn(CC(=O)N2CCCC2)c2ccccc12 | – | inconclusive: 12.6 µM [falling, partial curve, poor fit]
COc1ccccc1N1CCN(S(=O)(=O)c2ccc3c(c2)n(C)c(=O)n3C)CC1 | inconclusive: -2.46% | –
C=CCNC(=S)N1CCc2[nH]c3ccccc3c2C1 | inconclusive: 5.53% | –
O=[N+]([O-])c1cccc(/C=N/Nc2nc(NCc3ccccc3)nc(N3CCOCC3)n2)c1O | – | inconclusive: 8.91 µM [rising, partial curve]
O=C(c1ccc(F)cc1)c1ccc(-c2ccc(F)cc2)nc1 | inconclusive: 0.465% | –
O=C(N/N=C\c1ccc2c(c1)OCO2)c1ccco1 | – | inconclusive: 29.1 µM [rising, single point]
COc1ccc(C(C)(C)C)cc1NC(=O)COC(=O)CSCc1c(C)noc1C | inconclusive: 7.56% | –
CC[C@@H]1C(c2cccc(C)c2)=NN(c2ccccc2)[C@H]1C(=O)N1CCOC1=O | inconclusive: 1.94% | –
COc1ccc(CCn2c(SCCN3CCCCC3)nc3ccccc3c2=O)cc1OC | inconclusive: 3.67% | –
CCn1c(CNc2cccc(Cl)c2)nnc1SCC(=O)OC1CCCCC1 | – | inconclusive: 23.1 µM [falling, single point]
Cc1ccc(Nc2cc(-n3cccn3)ncn2)c(C)c1 | – | inconclusive: 1.46 µM [rising, full curve, poor fit]
Cc1ccc(C2C3=C(CC(C)(C)CC3=O)NC3=C2C(=O)c2ccccc23)cc1 (configuration not stated) | inconclusive: 0.0753% | –
CCOc1ccc(-c2nc(N)ncc2-c2ccccc2OC)c(O)c1 | inconclusive: -18.7% | –
CCOCCCNC(=O)c1ccc2c(c1)ncn2-c1ccc(CC)cc1 | inconclusive: -13% | –
CC12CN(C(=O)c3ccc([N+](=O)[O-])cc3)CC(C)(CN(C(=O)c3ccc([N+](=O)[O-])cc3)C1)C2=O | inconclusive: 8.96% | –
CC(C)C(=O)Nc1cccc(C(=O)Nc2ccccc2C(=O)O)c1 | – | inconclusive: 29.1 µM [falling, single point]
CC(C)(C)n1nnnc1C(c1cccnc1)N(Cc1ccccc1)Cc1ccco1 (configuration not stated) | inactive: 2.32% | –
